# Reference: the supplement of paper PMC11438910
# The list shows a part of the results. Only a few entries rise above the background.
# Tests used:
# Experiment in all cases: fluorescence intensity of antibody binding to polysaccharide-coupled beads; higher = stronger binding
# [1] = molecular target: pneumococcal polysaccharide Pn11F
# [2] = molecular target: pneumococcal polysaccharide Pn12A
# [3] = molecular target: pneumococcal polysaccharide Pn12B
# [4] = molecular target: pneumococcal polysaccharide Pn12F
# [5] = molecular target: pneumococcal polysaccharide Pn13
# [6] = molecular target: pneumococcal polysaccharide Pn14
# [7] = molecular target: pneumococcal polysaccharide Pn15A
# [8] = molecular target: pneumococcal polysaccharide Pn15B
# [9] = molecular target: pneumococcal polysaccharide Pn15C
# [10] = molecular target: pneumococcal polysaccharide Pn15F
# [11] = molecular target: pneumococcal polysaccharide Pn16A
# [12] = molecular target: pneumococcal polysaccharide Pn16F
# [13] = molecular target: pneumococcal polysaccharide Pn17A
# [14] = molecular target: pneumococcal polysaccharide Pn17F
# [15] = molecular target: pneumococcal polysaccharide Pn18A
# [16] = molecular target: pneumococcal polysaccharide Pn18B
# [17] = molecular target: pneumococcal polysaccharide Pn18C
# [18] = molecular target: pneumococcal polysaccharide Pn18F
# [19] = molecular target: pneumococcal polysaccharide Pn19A
# [20] = molecular target: pneumococcal polysaccharide Pn19B
# [21] = molecular target: pneumococcal polysaccharide Pn19C
# [22] = molecular target: pneumococcal polysaccharide Pn19F
# [23] = molecular target: pneumococcal polysaccharide Pn2
# [24] = antibody concentration 2.8593 ng/mL
# [25] = antibody concentration 15.2894 ng/mL
# [26] = antibody concentration 81.7561 ng/mL
# [27] = antibody concentration 437.17 ng/mL
# [28] = antibody concentration 2337.65 ng/mL
# [29] = antibody concentration 12500 ng/mL
# [30] = antibody concentration 0.1 ng/mL
# [31] = antibody concentration 0.534724 ng/mL
binder,measurement,setting,value
4-99.3 (protein) chain 1: QVQLQESGPGLVKPSETLSLTCAVSGYSISSGYYWGWIRQPPGKGLEYIGYISGSWGKSYYKPSLKSRVTISKDTSKNQFSLTLSSVTAADTAVYYCARRLEYVGFDVWGPGVLVTVSS chain 2: QAAPTQPPSVSGSPGQSVTISCTGTSSDIGYYNAVSWYQQHPGKAPKLMIYEVSKRPSGVSDRFSGSKSGNTASLTISGLQAEDEADYYCSSYAGSNTYIFGSGTRLTVL,fluorescence intensity,[1]; [24],12.5 MFI
same,fluorescence intensity,[1]; [25],14.5 MFI
same,fluorescence intensity,[1]; [26],13.8 MFI
same,fluorescence intensity,[1]; [27],16 MFI
same,fluorescence intensity,[1]; [28],18.5 MFI
same,fluorescence intensity,[1]; [29],35.5 MFI
same,fluorescence intensity,[2]; [30],15 MFI
same,fluorescence intensity,[2]; [31],14.5 MFI
same,fluorescence intensity,[2]; [24],15 MFI
same,fluorescence intensity,[2]; [25],14.5 MFI
same,fluorescence intensity,[2]; [26],14.5 MFI
same,fluorescence intensity,[2]; [27],17.5 MFI
same,fluorescence intensity,[2]; [28],23.5 MFI
same,fluorescence intensity,[2]; [29],61 MFI
same,fluorescence intensity,[3]; [30],15 MFI
same,fluorescence intensity,[3]; [31],15 MFI
same,fluorescence intensity,[3]; [24],15.5 MFI
same,fluorescence intensity,[3]; [25],16 MFI
same,fluorescence intensity,[3]; [26],14.5 MFI
same,fluorescence intensity,[3]; [27],16 MFI
same,fluorescence intensity,[3]; [28],24 MFI
same,fluorescence intensity,[3]; [29],66.5 MFI
same,fluorescence intensity,[4]; [30],16.5 MFI
same,fluorescence intensity,[4]; [31],18.2 MFI
same,fluorescence intensity,[4]; [24],17.5 MFI
same,fluorescence intensity,[4]; [25],18 MFI
same,fluorescence intensity,[4]; [26],19.2 MFI
same,fluorescence intensity,[4]; [27],20 MFI
same,fluorescence intensity,[4]; [28],25.5 MFI
same,fluorescence intensity,[4]; [29],112 MFI
same,fluorescence intensity,[5]; [30],19 MFI
same,fluorescence intensity,[5]; [31],18 MFI
same,fluorescence intensity,[5]; [24],17 MFI
same,fluorescence intensity,[5]; [25],18.5 MFI
same,fluorescence intensity,[5]; [26],18.5 MFI
same,fluorescence intensity,[5]; [27],18.5 MFI
same,fluorescence intensity,[5]; [28],25 MFI
same,fluorescence intensity,[5]; [29],69.8 MFI
same,fluorescence intensity,[6]; [30],13 MFI
same,fluorescence intensity,[6]; [31],14.5 MFI
same,fluorescence intensity,[6]; [24],13.5 MFI
same,fluorescence intensity,[6]; [25],13.5 MFI
same,fluorescence intensity,[6]; [26],16.5 MFI
same,fluorescence intensity,[6]; [27],20.5 MFI
same,fluorescence intensity,[6]; [28],40.5 MFI
same,fluorescence intensity,[6]; [29],390 MFI
same,fluorescence intensity,[7]; [30],12 MFI
same,fluorescence intensity,[7]; [31],11.8 MFI
same,fluorescence intensity,[7]; [24],12 MFI
same,fluorescence intensity,[7]; [25],13.2 MFI
same,fluorescence intensity,[7]; [26],13.5 MFI
same,fluorescence intensity,[7]; [27],12 MFI
same,fluorescence intensity,[7]; [28],15 MFI
same,fluorescence intensity,[7]; [29],23.2 MFI
same,fluorescence intensity,[8]; [30],17.5 MFI
same,fluorescence intensity,[8]; [31],17 MFI
same,fluorescence intensity,[8]; [24],18 MFI
same,fluorescence intensity,[8]; [25],18.5 MFI
same,fluorescence intensity,[8]; [26],20 MFI
same,fluorescence intensity,[8]; [27],22.5 MFI
same,fluorescence intensity,[8]; [28],23 MFI
same,fluorescence intensity,[8]; [29],45.2 MFI
same,fluorescence intensity,[9]; [30],15 MFI
same,fluorescence intensity,[9]; [31],17 MFI
same,fluorescence intensity,[9]; [24],17 MFI
same,fluorescence intensity,[9]; [25],16 MFI
same,fluorescence intensity,[9]; [26],14.5 MFI
same,fluorescence intensity,[9]; [27],20.2 MFI
same,fluorescence intensity,[9]; [28],20 MFI
same,fluorescence intensity,[9]; [29],33 MFI
same,fluorescence intensity,[10]; [30],18.8 MFI
same,fluorescence intensity,[10]; [31],17 MFI
same,fluorescence intensity,[10]; [24],17 MFI
same,fluorescence intensity,[10]; [25],16.5 MFI
same,fluorescence intensity,[10]; [26],16.5 MFI
same,fluorescence intensity,[10]; [27],18.2 MFI
same,fluorescence intensity,[10]; [28],24 MFI
same,fluorescence intensity,[10]; [29],46 MFI
same,fluorescence intensity,[11]; [30],15.5 MFI
same,fluorescence intensity,[11]; [31],12 MFI
same,fluorescence intensity,[11]; [24],13.8 MFI
same,fluorescence intensity,[11]; [25],13.5 MFI
same,fluorescence intensity,[11]; [26],14.5 MFI
same,fluorescence intensity,[11]; [27],17 MFI
same,fluorescence intensity,[11]; [28],19.2 MFI
same,fluorescence intensity,[11]; [29],39.5 MFI
same,fluorescence intensity,[12]; [30],24.5 MFI
same,fluorescence intensity,[12]; [31],22.5 MFI
same,fluorescence intensity,[12]; [24],22.5 MFI
same,fluorescence intensity,[12]; [25],23 MFI
same,fluorescence intensity,[12]; [26],23 MFI
same,fluorescence intensity,[12]; [27],25 MFI
same,fluorescence intensity,[12]; [28],33.2 MFI
same,fluorescence intensity,[12]; [29],53.5 MFI
same,fluorescence intensity,[13]; [30],21 MFI
same,fluorescence intensity,[13]; [31],19.8 MFI
same,fluorescence intensity,[13]; [24],20 MFI
same,fluorescence intensity,[13]; [25],19.5 MFI
same,fluorescence intensity,[13]; [26],20.8 MFI
same,fluorescence intensity,[13]; [27],21 MFI
same,fluorescence intensity,[13]; [28],23 MFI
same,fluorescence intensity,[13]; [29],34.2 MFI
same,fluorescence intensity,[14]; [30],24.5 MFI
same,fluorescence intensity,[14]; [31],24.5 MFI
same,fluorescence intensity,[14]; [24],23.5 MFI
same,fluorescence intensity,[14]; [25],25.5 MFI
same,fluorescence intensity,[14]; [26],22 MFI
same,fluorescence intensity,[14]; [27],25.5 MFI
same,fluorescence intensity,[14]; [28],28 MFI
same,fluorescence intensity,[14]; [29],37.8 MFI
same,fluorescence intensity,[15]; [30],24 MFI
same,fluorescence intensity,[15]; [31],22 MFI
same,fluorescence intensity,[15]; [24],22.5 MFI
same,fluorescence intensity,[15]; [25],23.5 MFI
same,fluorescence intensity,[15]; [26],23 MFI
same,fluorescence intensity,[15]; [27],23.8 MFI
same,fluorescence intensity,[15]; [28],26.5 MFI
same,fluorescence intensity,[15]; [29],42.5 MFI
same,fluorescence intensity,[16]; [30],29.5 MFI
same,fluorescence intensity,[16]; [31],29.5 MFI
same,fluorescence intensity,[16]; [24],28 MFI
same,fluorescence intensity,[16]; [25],29 MFI
same,fluorescence intensity,[16]; [26],30 MFI
same,fluorescence intensity,[16]; [27],31 MFI
same,fluorescence intensity,[16]; [28],38.5 MFI
same,fluorescence intensity,[16]; [29],55.2 MFI
same,fluorescence intensity,[17]; [30],18.2 MFI
same,fluorescence intensity,[17]; [31],16.5 MFI
same,fluorescence intensity,[17]; [24],18.5 MFI
same,fluorescence intensity,[17]; [25],18 MFI
same,fluorescence intensity,[17]; [26],18 MFI
same,fluorescence intensity,[17]; [27],20.5 MFI
same,fluorescence intensity,[17]; [28],25 MFI
same,fluorescence intensity,[17]; [29],61 MFI
same,fluorescence intensity,[18]; [30],21.5 MFI
same,fluorescence intensity,[18]; [31],22 MFI
same,fluorescence intensity,[18]; [24],22.5 MFI
same,fluorescence intensity,[18]; [25],22.5 MFI
same,fluorescence intensity,[18]; [26],22.5 MFI
same,fluorescence intensity,[18]; [27],26 MFI
same,fluorescence intensity,[18]; [28],35.2 MFI
same,fluorescence intensity,[18]; [29],50.8 MFI
same,fluorescence intensity,[19]; [30],17 MFI
same,fluorescence intensity,[19]; [31],16 MFI
same,fluorescence intensity,[19]; [24],19 MFI
same,fluorescence intensity,[19]; [25],16.8 MFI
same,fluorescence intensity,[19]; [26],17.2 MFI
same,fluorescence intensity,[19]; [27],19 MFI
same,fluorescence intensity,[19]; [28],24.8 MFI
same,fluorescence intensity,[19]; [29],46 MFI
same,fluorescence intensity,[20]; [30],27.8 MFI
same,fluorescence intensity,[20]; [31],26.5 MFI
same,fluorescence intensity,[20]; [24],27 MFI
same,fluorescence intensity,[20]; [25],28 MFI
same,fluorescence intensity,[20]; [26],27 MFI
same,fluorescence intensity,[20]; [27],31.5 MFI
same,fluorescence intensity,[20]; [28],76.5 MFI
same,fluorescence intensity,[20]; [29],495 MFI
same,fluorescence intensity,[21]; [30],26.2 MFI
same,fluorescence intensity,[21]; [31],25 MFI
same,fluorescence intensity,[21]; [24],24.5 MFI
same,fluorescence intensity,[21]; [25],24.5 MFI
same,fluorescence intensity,[21]; [26],25.8 MFI
same,fluorescence intensity,[21]; [27],26 MFI
same,fluorescence intensity,[21]; [28],57.5 MFI
same,fluorescence intensity,[21]; [29],340 MFI
same,fluorescence intensity,[22]; [30],25.5 MFI
same,fluorescence intensity,[22]; [31],24.2 MFI
same,fluorescence intensity,[22]; [24],24.5 MFI
same,fluorescence intensity,[22]; [25],24.5 MFI
same,fluorescence intensity,[22]; [26],25.5 MFI
same,fluorescence intensity,[22]; [27],28 MFI
same,fluorescence intensity,[22]; [28],33.5 MFI
same,fluorescence intensity,[22]; [29],71.5 MFI
same,fluorescence intensity,[23]; [30],18.5 MFI
same,fluorescence intensity,[23]; [31],19.5 MFI
same,fluorescence intensity,[23]; [24],19.5 MFI
same,fluorescence intensity,[23]; [25],19.2 MFI
same,fluorescence intensity,[23]; [26],19 MFI
same,fluorescence intensity,[23]; [27],21.5 MFI

# Some of the entries so far, tab-delimited:
binder	measurement	setting	value
4-99.3 (protein) chain 1: QVQLQESGPGLVKPSETLSLTCAVSGYSISSGYYWGWIRQPPGKGLEYIGYISGSWGKSYYKPSLKSRVTISKDTSKNQFSLTLSSVTAADTAVYYCARRLEYVGFDVWGPGVLVTVSS chain 2: QAAPTQPPSVSGSPGQSVTISCTGTSSDIGYYNAVSWYQQHPGKAPKLMIYEVSKRPSGVSDRFSGSKSGNTASLTISGLQAEDEADYYCSSYAGSNTYIFGSGTRLTVL	fluorescence intensity	[9]; [24]	17 MFI
same	fluorescence intensity	[15]; [25]	23.5 MFI

# Exported with tabs: part of the list above
binder	measurement	setting	value
4-99.3 (protein) chain 1: QVQLQESGPGLVKPSETLSLTCAVSGYSISSGYYWGWIRQPPGKGLEYIGYISGSWGKSYYKPSLKSRVTISKDTSKNQFSLTLSSVTAADTAVYYCARRLEYVGFDVWGPGVLVTVSS chain 2: QAAPTQPPSVSGSPGQSVTISCTGTSSDIGYYNAVSWYQQHPGKAPKLMIYEVSKRPSGVSDRFSGSKSGNTASLTISGLQAEDEADYYCSSYAGSNTYIFGSGTRLTVL	fluorescence intensity	[3]; [24]	15.5 MFI
same	fluorescence intensity	[4]; [25]	18 MFI
same	fluorescence intensity	[7]; [24]	12 MFI
same	fluorescence intensity	[14]; [29]	37.8 MFI
same	fluorescence intensity	[17]; [30]	18.2 MFI
same	fluorescence intensity	[18]; [30]	21.5 MFI
same	fluorescence intensity	[23]; [25]	19.2 MFI
